Drug screen on melanoma cell lines: apoptosis marker

Source: doi:10.1371/journal.pone.0140310, primary screening data, rounded.

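Human melanoma cell lines in 1,536-well plates were treated with two drugs together for 72 h, then fixed, stained and imaged. Values are the share of nuclei positive for cleaved PARP as a percentage of the same share in the DMSO control: 100 is the control level, higher means more apoptosis. Concentrations were fixed for each drug; these are the higher of two levels. These are primary screening values without error estimates. The marker varies much from line to line, for technical or biological reasons.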 An unselected part of the screen is shown.

All values are for the listed drug together with ZM336372 (10 µM): Cc1ccc(NC(=O)c2cccc(N(C)C)c2)cc1NC(=O)c1ccc(O)cc1

| Partner | SK-MEL-28 |
|---|---|
| O=C(Oc1ccc([N+](=O)[O-])cc1)N1CCC(C(O)(c2ccc3c(c2)OCO3)c2ccc3c(c2)OCO3)CC1 at 5 µM | 32.5 |
| CCCCCCCCCCCC1=C(O)C(=O)C=C(O)C1=O at 6 µM | 30.5 |
| C[C@]1(c2nc3c(C(N)=O)cccc3[nH]2)CCCN1 at 7 µM | 198 |
| Nc1ccn([C@@H]2O[C@H](CO)[C@@H](O)C2(F)F)c(=O)n1 at 0.002 µM | 45.2 |
| Nc1cccc2c1CN(C1CCC(=O)NC1=O)C2=O (stereo not shown) at 5 µM | 42.3 |
| Nc1ncn([C@H]2C[C@H](O)[C@@H](CO)O2)c(=O)n1 at 0.5 µM | 68.8 |
| CO[C@@H]1[C@H](N(C)C(=O)c2ccccc2)C[C@H]2O[C@]1(C)n1c3ccccc3c3c4c(c5c6ccccc6n2c5c31)C(=O)NC4 at 0.4 µM | 404 |
| C=C(c1ccc(C(=O)O)cc1)c1cc2c(cc1C)C(C)(C)CCC2(C)C at 10 µM | 102 |
| O=S(=O)(c1ccccc1)N(CC(F)(F)F)c1ccc(C(O)(C(F)(F)F)C(F)(F)F)cc1 at 7 µM | 60.6 |
| O=c1[nH]nc(Sc2ncc([N+](=O)[O-])s2)n1-c1ccc2c(c1)OCCO2 at 1 µM | 176 |
| Cn1nnc2c(C(N)=O)ncn2c1=O at 10 µM | 370 |
| COc1cc([C@@H]2c3cc4c(cc3[C@@H](O[C@@H]3O[C@@H]5CO[C@@H](C)O[C@H]5[C@H](O)[C@H]3O)[C@H]3COC(=O)[C@H]23)OCO4)cc(OC)c1O at 0.1 µM | 224 |
| Cc1cc([N+](=O)[O-])ccc1NS(=O)(=O)c1cc(Cl)ccc1Cl at 5 µM | 133 |
| N#CC[C@H](C1CCCC1)n1cc(-c2ncnc3[nH]ccc23)cn1 at 5 µM | 173 |
| Cn1c(Nc2ccc(C(F)(F)F)cc2)nc2cc(Oc3ccnc(-c4ncc(C(F)(F)F)[nH]4)c3)ccc21 at 0.4 µM | 256 |
| COCC[n+]1c2c(n(Cc3cnccn3)c1C)C(=O)c1ccccc1C2=O at 0.002 µM | 568 |
| C[C@@H](Oc1cc(-c2cnn(C3CCNCC3)c2)cnc1N)c1c(Cl)ccc(F)c1Cl at 1 µM | 99.1 |
| CC1(C)NC(=O)N(c2ccc([N+](=O)[O-])c(C(F)(F)F)c2)C1=O at 5 µM | 74.7 |
| Cc1cc(SCc2sc(-c3ccc(C(F)(F)F)c(F)c3)nc2C)ccc1OCC(=O)O at 10 µM | 74.5 |
| Clc1ccc(Nc2nnc(Cc3ccncc3)c3ccccc23)cc1 at 10 µM | 81.1 |
| C[C@@H](N)c1ccc(C(=O)Nc2ccnc3[nH]ccc23)cc1 at 2 µM | 156 |

The last 2 entries again:

| Partner | SK-MEL-28 |
|---|---|
| Clc1ccc(Nc2nnc(Cc3ccncc3)c3ccccc23)cc1 at 10 µM | 81.1 |
| C[C@@H](N)c1ccc(C(=O)Nc2ccnc3[nH]ccc23)cc1 at 2 µM | 156 |